In PMC7570852, “Ruthenium(II)/(III) DMSO-Based Complexes of 2-Aminophenyl Benzimidazole with In Vitro and In Vivo Anticancer Activity” (Molecules, 2020):

Test system: human breast cancer (MCF7) cells
Assay: MTT cell viability assay, MCF7
Assay type: cell-based
Conditions: in vitro
Experimental: The cytotoxic effect of the Hapbim ligand and its complexes (1) and (2) on human breast cancer (MCF7), human colorectal cancer (Caco2), and human normal liver (THLE-2) cell lines was evaluated by the MTT assay. The cells were cultured in a 96-well plate (1 × 10^4 cells/well, 100 μL/well) containing DMEM medium provided with 10% fetal bovine serum, and 1% penicillin/streptomycin. Then, the cells were incubated at 37 °C for 24 h in a CO2 incubator under 5% CO2, 95% air until reaching a confluence of 70–80%. A 20 μL volume of each compound at different concentrations (from 5 to 400 μM for the cancer cell and from 600 to 1000 μM for the normal cells) was added and the cells were re-incubated for a further 24 h. After the incubation period, the cells were incubated again with 5 mg/mL of MTT for 4 h and then the medium was replaced with 100 μL DMSO and vortexed for 20 min. Finally, the absorbance was recorded at 570 nm using the microplate reader. […] To calculate the cell inhibition percentage, the following equation was used:% Cell inhibition = 100 − % cell viability ((At − Ab)/(Ac − Ab)) × 100%)(4) where At is the absorbance value of tested compound; Ab is the absorbance value of blank; Ac is the absorbance value of the control.

First: CS(C)=O.Nc1ccccc1-c1nc2ccccc2[nH]1.O.[Cl][Ru]([Cl])[Cl] [(2), [Ru(III)Cl3(DMSO)(Hapbim)]·H2O]
Second: Nc1ccccc1-c1nc2ccccc2[nH]1 [Hapbim, 2-aminophenyl benzimidazole]
The “Therapeutic index: IC50 of THLE-2 cell/IC50 of MCF-7” value of the first is lower: 10.89 for the first, 18.5 for the second.

For [Ru(II)Cl2(DMSO)2(Hapbim)] [(1)], the “Therapeutic index: IC50 of THLE-2 cell/IC50 of MCF-7” value was 5.8.
